These are yes or no findings as the source states them, for the method shown. In cells and extracts the contact can be indirect. Some binding calls cover weakened binding; strength is not graded here. Tags and fused reporters may be left off the sequences shown.
Target: GST-HAB1 (Arabidopsis) (UniProt Q9CAJ0)
Experiment: in vitro pull-down as developed for PYR1, with ABA

The chains behind the UniProt entries cited, without tags or fusion partners. Residues count along the entry.
UniProt Q9CAJ0, residues 23-511: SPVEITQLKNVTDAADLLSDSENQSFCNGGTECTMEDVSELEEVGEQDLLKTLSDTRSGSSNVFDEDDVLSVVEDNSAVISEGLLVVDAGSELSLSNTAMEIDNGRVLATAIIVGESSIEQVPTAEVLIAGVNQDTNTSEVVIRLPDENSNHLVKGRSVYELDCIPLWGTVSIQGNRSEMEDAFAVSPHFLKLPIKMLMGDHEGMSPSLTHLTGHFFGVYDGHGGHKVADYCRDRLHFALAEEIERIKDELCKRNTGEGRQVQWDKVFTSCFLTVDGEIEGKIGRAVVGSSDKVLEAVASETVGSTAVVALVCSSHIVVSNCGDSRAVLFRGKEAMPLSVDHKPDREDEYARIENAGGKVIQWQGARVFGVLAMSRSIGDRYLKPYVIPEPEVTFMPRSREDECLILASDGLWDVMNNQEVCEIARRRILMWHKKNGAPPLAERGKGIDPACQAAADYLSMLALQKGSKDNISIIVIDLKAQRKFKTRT

B1: PYL4 6×His-tagged protein (receptor)
chain: HHHHHHMLAVHRPSSAVSDGDSVQIPMMIASFQKRFPSLSRDSTAARFHTHEVGPNQCCSAVIQEISAPISTVWSVVRRFDNPQAYKHFLKSCSVIGGDGDNVGSLRQVHVVSGLPAASSTERLDILDDERHVISFSVVGGDHRLSNYRSVTTLHPSPISGTVVVESYVVDVPPGNTKEETCDFVDVIVRCNLQSLAKIAENTAAESKKKMSL
Question: Which binding does the source give for B1 here?
Answer: binds

— US20130324409A1
